The list shows a part of the results.
Key:
Test in all cases: log2 fold change, soluble protein after heating vs DMSO (PISA); higher = thermal stabilisation; K562 cells, 10 uM, 30 min; active = over 0.2 and 3.5 SD of the protein, either way, in both replicates (recomputed)
saracatinib = compound: CN1CCN(CCOc2cc(OC3CCOCC3)c3c(Nc4c(Cl)ccc5c4OCO5)ncnc3c2)CC1 [saracatinib]
Procedure, shortened: (§1)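 Quantification of soluble protein used TMTpro 16plex LC-MS/MS, with channel sums equalised. Samples were the supernatant after 21,000xg for 90 min of pooled aliquots from K562 cells (2×10^6 cells/mL) treated with 10 μM compound for 30 min, heated for 3 min over 48°C-58°C, and extracted in PBS with 0.5% NP-40 at 4°C. Values, from duplicates, describe thermal stability against control samples on a log2 fold-change scale.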

Protein sequences, listed by entry. Tags and fused reporters are not part of them. Lines headed by an entry give the natural chain unless they say otherwise; changes in a name come on top.
UniProt O95248: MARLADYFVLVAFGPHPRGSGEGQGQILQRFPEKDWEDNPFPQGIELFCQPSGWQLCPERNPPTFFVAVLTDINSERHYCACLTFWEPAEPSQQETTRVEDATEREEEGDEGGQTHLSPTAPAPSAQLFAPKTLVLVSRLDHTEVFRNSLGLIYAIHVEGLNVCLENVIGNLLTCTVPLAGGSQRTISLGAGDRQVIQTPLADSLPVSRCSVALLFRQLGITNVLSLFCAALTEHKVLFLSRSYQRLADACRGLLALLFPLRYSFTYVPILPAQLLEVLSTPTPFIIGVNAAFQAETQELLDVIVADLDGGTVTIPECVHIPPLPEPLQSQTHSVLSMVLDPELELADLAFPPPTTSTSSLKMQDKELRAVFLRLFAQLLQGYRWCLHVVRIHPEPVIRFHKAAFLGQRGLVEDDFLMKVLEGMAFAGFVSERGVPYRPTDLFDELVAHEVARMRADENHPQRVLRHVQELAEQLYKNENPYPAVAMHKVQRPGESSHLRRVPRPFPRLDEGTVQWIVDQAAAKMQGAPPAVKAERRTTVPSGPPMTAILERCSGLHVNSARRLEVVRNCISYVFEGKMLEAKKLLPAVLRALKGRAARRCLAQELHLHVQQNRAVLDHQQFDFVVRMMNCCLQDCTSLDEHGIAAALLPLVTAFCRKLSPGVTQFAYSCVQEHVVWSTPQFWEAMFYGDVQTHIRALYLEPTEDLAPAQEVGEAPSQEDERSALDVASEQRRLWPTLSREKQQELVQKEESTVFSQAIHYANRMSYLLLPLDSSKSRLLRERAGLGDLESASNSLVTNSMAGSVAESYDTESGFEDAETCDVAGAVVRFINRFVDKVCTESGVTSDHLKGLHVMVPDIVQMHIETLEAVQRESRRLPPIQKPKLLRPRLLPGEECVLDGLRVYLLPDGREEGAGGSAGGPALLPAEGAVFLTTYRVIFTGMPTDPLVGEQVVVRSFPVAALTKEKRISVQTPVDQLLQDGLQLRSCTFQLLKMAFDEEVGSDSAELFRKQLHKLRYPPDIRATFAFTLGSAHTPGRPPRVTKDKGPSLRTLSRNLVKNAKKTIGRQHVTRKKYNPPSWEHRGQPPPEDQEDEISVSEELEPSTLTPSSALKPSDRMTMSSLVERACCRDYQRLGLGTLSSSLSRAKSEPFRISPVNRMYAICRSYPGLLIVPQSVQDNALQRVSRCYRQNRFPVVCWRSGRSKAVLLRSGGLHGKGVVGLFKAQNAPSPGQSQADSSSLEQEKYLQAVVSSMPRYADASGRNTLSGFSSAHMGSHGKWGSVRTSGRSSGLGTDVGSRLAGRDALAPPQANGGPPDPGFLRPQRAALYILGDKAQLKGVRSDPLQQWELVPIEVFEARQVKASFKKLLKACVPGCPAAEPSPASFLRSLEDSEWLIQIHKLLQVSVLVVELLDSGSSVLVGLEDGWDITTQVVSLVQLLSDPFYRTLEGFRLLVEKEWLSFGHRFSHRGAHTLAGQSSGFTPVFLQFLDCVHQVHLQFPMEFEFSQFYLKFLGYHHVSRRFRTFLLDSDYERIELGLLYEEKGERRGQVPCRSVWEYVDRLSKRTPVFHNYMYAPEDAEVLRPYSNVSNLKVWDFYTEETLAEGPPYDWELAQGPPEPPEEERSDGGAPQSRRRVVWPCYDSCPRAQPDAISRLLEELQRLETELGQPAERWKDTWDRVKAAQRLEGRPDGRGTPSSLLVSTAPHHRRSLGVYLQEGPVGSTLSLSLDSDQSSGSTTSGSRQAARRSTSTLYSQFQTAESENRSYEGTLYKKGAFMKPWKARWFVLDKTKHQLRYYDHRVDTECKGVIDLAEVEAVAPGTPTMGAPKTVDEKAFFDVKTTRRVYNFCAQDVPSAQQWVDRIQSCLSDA
UniProt Q15424: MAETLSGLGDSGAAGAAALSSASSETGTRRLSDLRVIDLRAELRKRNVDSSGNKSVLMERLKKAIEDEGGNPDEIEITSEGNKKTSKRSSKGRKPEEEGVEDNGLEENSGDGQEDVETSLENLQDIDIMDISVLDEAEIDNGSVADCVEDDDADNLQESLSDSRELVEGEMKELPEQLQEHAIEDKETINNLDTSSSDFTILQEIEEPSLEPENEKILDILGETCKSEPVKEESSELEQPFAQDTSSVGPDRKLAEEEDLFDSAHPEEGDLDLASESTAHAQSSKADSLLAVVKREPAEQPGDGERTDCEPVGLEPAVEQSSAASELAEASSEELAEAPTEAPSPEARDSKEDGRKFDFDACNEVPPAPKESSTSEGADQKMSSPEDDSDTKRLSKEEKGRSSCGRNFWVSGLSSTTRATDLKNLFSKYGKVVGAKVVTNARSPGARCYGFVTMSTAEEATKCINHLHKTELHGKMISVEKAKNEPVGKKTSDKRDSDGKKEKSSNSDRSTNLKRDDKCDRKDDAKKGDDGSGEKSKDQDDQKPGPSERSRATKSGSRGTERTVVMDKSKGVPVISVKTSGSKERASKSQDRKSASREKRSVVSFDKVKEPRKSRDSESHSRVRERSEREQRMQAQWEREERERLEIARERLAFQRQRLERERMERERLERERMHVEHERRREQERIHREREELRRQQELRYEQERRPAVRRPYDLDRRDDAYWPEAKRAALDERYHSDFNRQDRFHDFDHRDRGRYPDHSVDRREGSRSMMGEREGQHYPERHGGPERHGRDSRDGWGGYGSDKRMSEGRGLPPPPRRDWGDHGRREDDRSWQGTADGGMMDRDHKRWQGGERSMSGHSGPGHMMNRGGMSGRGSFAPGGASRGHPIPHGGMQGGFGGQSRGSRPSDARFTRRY
UniProt O75880: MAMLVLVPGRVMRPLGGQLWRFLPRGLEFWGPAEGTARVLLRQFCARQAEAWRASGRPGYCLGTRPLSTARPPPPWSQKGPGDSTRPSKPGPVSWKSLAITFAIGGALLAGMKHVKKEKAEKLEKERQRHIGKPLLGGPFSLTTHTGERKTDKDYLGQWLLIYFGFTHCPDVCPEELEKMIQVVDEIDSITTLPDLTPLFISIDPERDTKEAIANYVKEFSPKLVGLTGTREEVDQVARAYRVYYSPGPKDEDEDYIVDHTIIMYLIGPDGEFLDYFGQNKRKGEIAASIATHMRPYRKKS
UniProt Q9NQC3: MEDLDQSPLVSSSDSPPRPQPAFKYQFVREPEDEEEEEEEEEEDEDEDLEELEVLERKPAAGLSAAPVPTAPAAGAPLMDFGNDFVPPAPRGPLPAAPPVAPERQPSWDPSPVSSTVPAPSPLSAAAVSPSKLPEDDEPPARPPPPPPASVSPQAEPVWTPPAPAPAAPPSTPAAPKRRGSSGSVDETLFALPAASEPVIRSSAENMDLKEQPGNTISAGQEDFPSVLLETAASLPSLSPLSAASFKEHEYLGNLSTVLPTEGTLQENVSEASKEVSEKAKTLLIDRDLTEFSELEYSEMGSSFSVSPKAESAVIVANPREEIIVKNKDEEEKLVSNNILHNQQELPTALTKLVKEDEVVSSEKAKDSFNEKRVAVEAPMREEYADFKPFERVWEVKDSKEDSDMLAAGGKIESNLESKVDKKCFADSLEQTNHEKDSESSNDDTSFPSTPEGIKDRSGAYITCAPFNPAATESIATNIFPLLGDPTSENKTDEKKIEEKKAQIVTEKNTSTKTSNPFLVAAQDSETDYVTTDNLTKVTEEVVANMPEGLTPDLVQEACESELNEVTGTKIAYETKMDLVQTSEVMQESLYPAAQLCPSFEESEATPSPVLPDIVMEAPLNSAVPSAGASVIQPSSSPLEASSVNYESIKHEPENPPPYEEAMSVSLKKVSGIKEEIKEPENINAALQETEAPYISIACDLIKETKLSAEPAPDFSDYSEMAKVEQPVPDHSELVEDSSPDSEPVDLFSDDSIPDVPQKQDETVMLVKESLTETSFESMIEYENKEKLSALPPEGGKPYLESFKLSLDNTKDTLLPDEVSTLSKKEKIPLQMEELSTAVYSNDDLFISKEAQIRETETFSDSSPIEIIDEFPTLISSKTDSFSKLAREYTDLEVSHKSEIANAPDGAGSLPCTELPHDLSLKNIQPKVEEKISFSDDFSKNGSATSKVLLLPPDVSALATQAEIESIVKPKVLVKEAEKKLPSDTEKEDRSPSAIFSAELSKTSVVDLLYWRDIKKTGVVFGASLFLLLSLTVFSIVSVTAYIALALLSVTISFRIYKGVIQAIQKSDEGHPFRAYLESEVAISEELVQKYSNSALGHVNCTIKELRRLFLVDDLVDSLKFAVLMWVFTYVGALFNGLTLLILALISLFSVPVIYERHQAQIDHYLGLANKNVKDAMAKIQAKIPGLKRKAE
UniProt P55735: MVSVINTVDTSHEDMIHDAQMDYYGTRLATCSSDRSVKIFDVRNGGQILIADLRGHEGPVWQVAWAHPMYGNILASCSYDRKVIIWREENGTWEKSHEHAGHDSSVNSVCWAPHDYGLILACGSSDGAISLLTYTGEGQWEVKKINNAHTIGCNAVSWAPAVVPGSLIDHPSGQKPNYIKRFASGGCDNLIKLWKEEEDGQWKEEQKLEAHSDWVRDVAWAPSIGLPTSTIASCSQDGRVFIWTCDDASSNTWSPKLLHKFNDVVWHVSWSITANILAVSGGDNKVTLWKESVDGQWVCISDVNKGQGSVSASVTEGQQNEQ
UniProt Q6PCB5: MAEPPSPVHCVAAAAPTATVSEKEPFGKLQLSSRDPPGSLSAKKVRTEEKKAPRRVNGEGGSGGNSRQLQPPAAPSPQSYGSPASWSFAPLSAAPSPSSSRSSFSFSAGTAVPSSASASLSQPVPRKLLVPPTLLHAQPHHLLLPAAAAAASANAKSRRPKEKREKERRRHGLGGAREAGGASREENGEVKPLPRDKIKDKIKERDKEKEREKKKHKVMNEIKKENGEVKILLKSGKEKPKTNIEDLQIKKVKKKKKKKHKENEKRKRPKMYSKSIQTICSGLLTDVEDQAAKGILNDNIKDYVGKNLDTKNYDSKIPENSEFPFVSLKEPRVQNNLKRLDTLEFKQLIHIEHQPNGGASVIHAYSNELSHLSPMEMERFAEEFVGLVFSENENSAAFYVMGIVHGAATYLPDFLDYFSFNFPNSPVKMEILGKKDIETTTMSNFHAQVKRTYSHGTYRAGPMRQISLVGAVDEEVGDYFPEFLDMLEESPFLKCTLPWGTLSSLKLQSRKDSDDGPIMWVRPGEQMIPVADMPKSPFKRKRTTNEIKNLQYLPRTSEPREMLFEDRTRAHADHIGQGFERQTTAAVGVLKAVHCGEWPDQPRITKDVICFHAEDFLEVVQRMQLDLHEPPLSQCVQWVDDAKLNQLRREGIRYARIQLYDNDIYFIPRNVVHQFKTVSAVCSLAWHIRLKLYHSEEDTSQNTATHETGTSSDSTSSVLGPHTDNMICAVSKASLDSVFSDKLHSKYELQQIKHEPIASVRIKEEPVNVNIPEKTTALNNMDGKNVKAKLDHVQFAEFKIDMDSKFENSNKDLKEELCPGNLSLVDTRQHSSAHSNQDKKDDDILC
UniProt O43290: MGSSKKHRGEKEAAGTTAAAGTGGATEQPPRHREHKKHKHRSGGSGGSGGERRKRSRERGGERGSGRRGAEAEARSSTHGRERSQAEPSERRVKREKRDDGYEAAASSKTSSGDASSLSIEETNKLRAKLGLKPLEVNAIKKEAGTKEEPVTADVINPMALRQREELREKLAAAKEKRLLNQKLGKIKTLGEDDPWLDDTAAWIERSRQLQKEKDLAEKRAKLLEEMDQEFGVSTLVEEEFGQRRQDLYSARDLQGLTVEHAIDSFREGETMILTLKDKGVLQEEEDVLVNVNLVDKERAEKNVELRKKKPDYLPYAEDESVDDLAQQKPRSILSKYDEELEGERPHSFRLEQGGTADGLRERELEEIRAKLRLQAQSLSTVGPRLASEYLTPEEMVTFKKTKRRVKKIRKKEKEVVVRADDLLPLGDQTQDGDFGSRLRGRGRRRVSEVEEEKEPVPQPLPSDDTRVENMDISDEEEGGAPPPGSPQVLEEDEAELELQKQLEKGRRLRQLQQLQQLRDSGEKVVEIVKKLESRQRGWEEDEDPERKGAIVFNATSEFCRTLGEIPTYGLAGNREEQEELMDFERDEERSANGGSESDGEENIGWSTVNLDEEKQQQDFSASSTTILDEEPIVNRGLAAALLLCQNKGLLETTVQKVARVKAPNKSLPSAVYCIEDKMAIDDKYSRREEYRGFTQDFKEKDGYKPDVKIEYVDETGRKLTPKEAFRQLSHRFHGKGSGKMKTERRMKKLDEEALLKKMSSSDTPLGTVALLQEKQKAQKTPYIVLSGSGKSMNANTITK
UniProt O00422: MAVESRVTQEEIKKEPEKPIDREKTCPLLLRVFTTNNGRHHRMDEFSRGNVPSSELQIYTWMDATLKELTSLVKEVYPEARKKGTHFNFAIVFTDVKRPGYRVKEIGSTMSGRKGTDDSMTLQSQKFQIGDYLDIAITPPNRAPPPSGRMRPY

sotrastaurin = compound: CN1CCN(c2nc(C3=C(c4c[nH]c5ccccc45)C(=O)NC3=O)c3ccccc3n2)CC1 [sotrastaurin]
Procedure, shortened: as §1

alvocidib = compound: CN1CC[C@H](c2c(O)cc(O)c3c(=O)cc(-c4ccccc4Cl)oc23)[C@H](O)C1 [alvocidib]
Procedure, shortened: as §1

Tubastatin A = compound: CN1CCc2c(c3ccccc3n2Cc2ccc(C(=O)NO)cc2)C1 [Tubastatin A]
Procedure, shortened: as §1

[1] = compound: CNC(=O)C1=CC=CC=C1NC2=NC(=NC=C2Cl)NC3=C(C=C(C=C3)N4CCOCC4)OC
Procedure, shortened: as §1

defactinib = compound: CNC(=O)c1ccc(Nc2ncc(C(F)(F)F)c(NCc3nccnc3N(C)S(C)(=O)=O)n2)cc1 [defactinib]
Procedure, shortened: as §1

rucaparib = compound: CNCc1ccc(-c2[nH]c3cc(F)cc4c3c2CCNC4=O)cc1 [rucaparib]
Procedure, shortened: as §1

[2] = compound: CNc1nc(-c2ccc3c(N)n[nH]c3c2)cc(N2C[C@@H](C(=O)NC3CCCCC3)CC[C@H]2C)n1
Procedure, shortened: as §1

encorafenib = compound: COC(=O)N[C@@H](C)CNc1nccc(-c2cn(C(C)C)nc2-c2cc(Cl)cc(NS(C)(=O)=O)c2F)n1 [encorafenib]
Procedure, shortened: as §1

[3] = compound: COC(=O)[C@H](CCSC)NC(=O)C1=C(C=C(C=C1)NC[C@H](CS)N)C2=CC=CC=C2
Procedure, shortened: as §1

[4] = compound: COC1=CC=C(C=C1)CN2C=CC3=C2C=C(C=C3)C(=O)NO
Procedure, shortened: as §1

filanesib = compound: CON(C)C(=O)N1N=C(c2cc(F)ccc2F)S[C@@]1(CCCN)c1ccccc1 [filanesib]
Procedure, shortened: as §1

zotarolimus = compound: CO[C@H]1C[C@@H]2CC[C@@H](C)[C@@](O)(O2)C(=O)C(=O)N2CCCC[C@H]2C(=O)O[C@H]([C@H](C)C[C@@H]2CC[C@H](n3cnnn3)[C@H](OC)C2)CC(=O)[C@H](C)/C=C(\C)[C@@H](O)[C@@H](OC)C(=O)[C@H](C)C[C@H](C)/C=C/C=C/C=C/1C [zotarolimus]
Procedure, shortened: as §1

idasanutlin = compound: COc1cc(C(=O)O)ccc1NC(=O)[C@@H]1N[C@@H](CC(C)(C)C)[C@](C#N)(c2ccc(Cl)cc2F)[C@H]1c1cccc(Cl)c1F [idasanutlin]
Procedure, shortened: as §1

alisertib = compound: COc1cc(Nc2ncc3c(n2)-c2ccc(Cl)cc2C(c2c(F)cccc2OC)=NC3)ccc1C(=O)O [alisertib]
Procedure, shortened: as §1

[5] = compound: COc1cc2nc(-c3cc(F)ccc3O)nc(N[C@@H]3CNC[C@H]3C(C)(C)O)c2cc1OC
Procedure, shortened: as §1

gefitinib = compound: COc1cc2ncnc(Nc3ccc(F)c(Cl)c3)c2cc1OCCCN1CCOCC1 [gefitinib]
Procedure, shortened: as §1

[6] = compound: COc1cccc2cc(-c3nc([C@H]4CC[C@H](C(=O)O)CC4)n4ncnc(N)c34)[nH]c12
Procedure, shortened: as §1

lapatinib = compound: CS(=O)(=O)CCNCc1ccc(-c2ccc3ncnc(Nc4ccc(OCc5cccc(F)c5)c(Cl)c4)c3c2)o1 [lapatinib]
Procedure, shortened: as §1

pictilisib = compound: CS(=O)(=O)N1CCN(Cc2cc3nc(-c4cccc5[nH]ncc45)nc(N4CCOCC4)c3s2)CC1 [pictilisib]
Procedure, shortened: as §1

Measured: log2 fold change

SBF1 isoform 4 (UniProt O95248)
inactive: saracatinib -0.107 | sotrastaurin 0.019 | alvocidib -0.133 | Tubastatin A -0.018 | [1] -0.212 | defactinib 0.038 | rucaparib 0.171 | [2] 0.139 | encorafenib 0.159 | [3] -0.017 | [4] -0.442 | filanesib 0.267 | zotarolimus 0.057 | idasanutlin 0.063 | alisertib -0.041 | [5] -0.071 | gefitinib -0.137 | [6] 0.094 | lapatinib -0.003 | pictilisib 0.176

SBDS (UniProt Q9Y3A5)
inactive: saracatinib -0.012 | sotrastaurin -0.013 | alvocidib -0.07 | Tubastatin A 0.041 | [1] 0.006 | defactinib 0 | rucaparib -0.018 | [2] 0.06 | encorafenib 0.052 | [3] -0.032 | [4] 0.036 | filanesib -0.116 | zotarolimus 0.022 | idasanutlin -0.125 | alisertib -0.054 | [5] 0.106 | gefitinib 0.024 | [6] -0.016 | lapatinib -0.043 | pictilisib 0.015

SCP2 (UniProt P22307)
inactive: saracatinib -0.02 | sotrastaurin 0.024 | alvocidib -0.012 | Tubastatin A -0.008 | [1] 0.051 | defactinib 0 | rucaparib -0.032 | [2] -0.021 | encorafenib -0.02 | [3] -0.007 | [4] 0.029 | filanesib -0.031 | zotarolimus -0.025 | idasanutlin -0.05 | alisertib -0.042 | [5] 0.013 | gefitinib 0.018 | [6] 0.03 | lapatinib 0.014 | pictilisib 0.045

SAE1 (UniProt Q9UBE0)
inactive: saracatinib 0.019 | sotrastaurin -0.01 | alvocidib -0.022 | Tubastatin A -0.007 | [1] 0.055 | defactinib -0.041 | rucaparib -0.041 | [2] -0.02 | encorafenib 0 | [3] -0.02 | [4] -0.001 | filanesib -0.044 | zotarolimus 0.045 | idasanutlin -0.07 | alisertib -0.027 | [5] 0.043 | gefitinib -0.019 | [6] -0.013 | lapatinib -0.015 | pictilisib 0.06

SAFB isoform 3 (UniProt Q15424)
inactive: saracatinib -0.074 | sotrastaurin -0.008 | alvocidib 0.286 | Tubastatin A 0.062 | [1] -0.104 | defactinib 0.19 | rucaparib 0.131 | [2] -0.016 | encorafenib 0.023 | [3] 0.016 | [4] 0.043 | filanesib 0.305 | zotarolimus -0.026 | idasanutlin 0.219 | alisertib -0.117 | [5] -0.043 | gefitinib -0.018 | [6] -0.027 | lapatinib -0.032 | pictilisib -0.13

2 entries picked at random from those above, as already listed:
SCP2 (UniProt P22307)
inactive: saracatinib -0.02 | sotrastaurin 0.024 | alvocidib -0.012 | Tubastatin A -0.008 | [1] 0.051 | defactinib 0 | rucaparib -0.032 | [2] -0.021 | encorafenib -0.02 | [3] -0.007 | [4] 0.029 | filanesib -0.031 | zotarolimus -0.025 | idasanutlin -0.05 | alisertib -0.042 | [5] 0.013 | gefitinib 0.018 | [6] 0.03 | lapatinib 0.014 | pictilisib 0.045

SBF1 isoform 4 (UniProt O95248)
inactive: saracatinib -0.107 | sotrastaurin 0.019 | alvocidib -0.133 | Tubastatin A -0.018 | [1] -0.212 | defactinib 0.038 | rucaparib 0.171 | [2] 0.139 | encorafenib 0.159 | [3] -0.017 | [4] -0.442 | filanesib 0.267 | zotarolimus 0.057 | idasanutlin 0.063 | alisertib -0.041 | [5] -0.071 | gefitinib -0.137 | [6] 0.094 | lapatinib -0.003 | pictilisib 0.176

(continued)

RTRAF (UniProt Q9Y224)
inactive: saracatinib -0.063 | sotrastaurin -0.013 | alvocidib 0.099 | Tubastatin A -0.003 | [1] 0.099 | defactinib 0.148 | rucaparib 0.158 | [2] 0.011 | encorafenib 0.045 | [3] -0.009 | [4] -0.067 | filanesib 0.231 | zotarolimus 0.036 | idasanutlin 0.076 | alisertib -0.028 | [5] 0.035 | gefitinib -0.012 | [6] -0.109 | lapatinib -0.018 | pictilisib 0.041

SCO1 (UniProt O75880)
inactive: saracatinib -0.032 | sotrastaurin 0.041 | alvocidib -0.115 | Tubastatin A 0.024 | [1] 0.014 | defactinib -0.026 | rucaparib -0.006 | [2] 0.025 | encorafenib -0.018 | [3] 0.365 | [4] -0.009 | filanesib 0.046 | zotarolimus 0.013 | idasanutlin 0.128 | alisertib -0.003 | [5] 0.021 | gefitinib 0.032 | [6] 0.015 | lapatinib -0.011 | pictilisib 0.041

RTN4 (UniProt Q9NQC3)
inactive: saracatinib 0.073 | sotrastaurin 0.021 | alvocidib -0.019 | Tubastatin A -0.022 | [1] 0.018 | defactinib -0.019 | rucaparib -0.131 | [2] -0.032 | encorafenib 0.008 | [3] 0.038 | [4] -0.034 | filanesib -0.01 | zotarolimus -0.028 | idasanutlin -0.046 | alisertib 0.011 | [5] 0.057 | gefitinib -0.037 | [6] 0.09 | lapatinib -0.057 | pictilisib 0.061

SEC13 isoform 3 (UniProt P55735)
inactive: saracatinib -0.001 | sotrastaurin -0.049 | alvocidib 0.002 | Tubastatin A -0.001 | [1] 0.01 | defactinib -0.042 | rucaparib -0.026 | [2] 0.017 | encorafenib -0.031 | [3] 0.017 | [4] 0.014 | filanesib -0.002 | zotarolimus 0.02 | idasanutlin -0.035 | alisertib -0.033 | [5] 0.064 | gefitinib -0.006 | [6] -0.055 | lapatinib 0.022 | pictilisib 0.003

SCAP (UniProt Q12770)
inactive: saracatinib -0.026 | sotrastaurin -0.012 | alvocidib -0.067 | Tubastatin A 0.106 | [1] 0.03 | defactinib -0.018 | rucaparib -0.067 | [2] -0.032 | encorafenib 0.055 | [3] 0.002 | [4] 0.007 | filanesib -0.064 | zotarolimus 0.042 | idasanutlin -0.062 | alisertib -0.04 | [5] -0.038 | gefitinib 0.031 | [6] -0.054 | lapatinib 0.063 | pictilisib 0.052

SCARB2 (UniProt Q14108)
inactive: saracatinib 0.003 | sotrastaurin 0.088 | alvocidib -0.102 | Tubastatin A -0.019 | [1] 0.037 | defactinib -0.046 | rucaparib -0.09 | [2] -0.019 | encorafenib -0.043 | [3] 0 | [4] -0.043 | filanesib -0.002 | zotarolimus -0.023 | idasanutlin -0.065 | alisertib -0.018 | [5] -0.028 | gefitinib 0.003 | [6] 0.037 | lapatinib 0.118 | pictilisib 0.036

RSBN1L (UniProt Q6PCB5)
inactive: saracatinib -0.004 | sotrastaurin -0.045 | alvocidib 0.188 | Tubastatin A 0.081 | [1] 0.022 | defactinib 0.228 | rucaparib 0.222 | [2] 0.058 | encorafenib 0.169 | [3] -0.035 | [4] -0.087 | filanesib 0.26 | zotarolimus -0.051 | idasanutlin 0.184 | alisertib -0.033 | [5] -0.117 | gefitinib -0.023 | [6] -0.141 | lapatinib 0.2 | pictilisib -0.192

SCYL2 (UniProt Q6P3W7)
inactive: saracatinib 0.017 | sotrastaurin -0.025 | alvocidib -0.054 | Tubastatin A 0.008 | [1] 0.014 | defactinib -0.083 | rucaparib -0.021 | [2] -0.039 | encorafenib 0.036 | [3] -0.065 | [4] -0.017 | filanesib -0.038 | zotarolimus 0.012 | idasanutlin -0.057 | alisertib 0.035 | [5] 0.033 | gefitinib -0.006 | [6] -0.008 | lapatinib -0.006 | pictilisib -0.002

SART1 (UniProt O43290)
inactive: saracatinib -0.054 | sotrastaurin -0.009 | alvocidib 0.165 | Tubastatin A 0.095 | [1] -0.048 | defactinib 0.173 | rucaparib 0.257 | [2] 0.059 | encorafenib 0.168 | [3] 0.025 | [4] 0.075 | filanesib 0.44 | zotarolimus 0.002 | idasanutlin 0.193 | alisertib -0.079 | [5] -0.096 | gefitinib -0.078 | [6] -0.156 | lapatinib 0.146 | pictilisib -0.19

RTN2 (UniProt O75298)
inactive: saracatinib 0.111 | sotrastaurin 0.07 | alvocidib -0.018 | Tubastatin A -0.138 | [1] 0.064 | defactinib -0.021 | rucaparib -0.012 | [2] 0.039 | encorafenib -0.048 | [3] 0.077 | [4] 0.098 | filanesib -0.036 | zotarolimus -0.074 | idasanutlin -0.042 | alisertib -0.213 | [5] -0.232 | gefitinib -0.017 | [6] 0.048 | lapatinib -0.034

SAP18 isoform 2 (UniProt O00422)
inactive: saracatinib -0.012 | sotrastaurin -0.092 | alvocidib 0.078 | Tubastatin A 0.008 | [1] -0.004 | defactinib 0.181 | rucaparib 0.224 | [2] 0.015 | encorafenib -0.037 | [3] -0.03 | [4] 0.084 | filanesib 0.384 | zotarolimus 0.009 | idasanutlin 0.174 | alisertib -0.07 | [5] 0.036 | gefitinib -0.034 | [6] 0 | lapatinib 0.07 | pictilisib 0

Source: the supplement of paper PMC10849652
